{
  "sequences": {"note": "Protein sequences, listed by entry. Tags and fused reporters are not part of them. Residues count along the entry.", "UniProt P60615, 22-95": "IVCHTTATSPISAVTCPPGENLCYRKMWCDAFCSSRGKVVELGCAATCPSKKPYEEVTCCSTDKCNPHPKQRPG"},
  "source": "paper PMC9110030",
  "target": "α-Bungarotoxin (UniProt P60615)",
  "assay": "affinity purification with mass spectrometry; only the target purified",
  "note": "These are yes or no findings as the source states them, for the method shown. In cells and extracts the contact can be indirect. Here binding means that the protein was enriched with, or labelled near, the bait; the list need not be complete. A no says only that the protein was not detected with the bait.",
  "data": [
    {"substance": "Drosophila nAChR β1 subunit (from UniProt P04755 25-521) (receptor)", "values": [
      {"measurement": "binding", "value": "no binding"}
    ]}
  ]
}
